From PMC5059453 come the findings set out here.

Substitutions are numbered along the chain they refer to. Numbers in names are those of the source. These are yes or no findings as the source states them, for the method shown. For some of these results: In cells and extracts the contact can be indirect. Some entries that bind do so weakly or less than the wild type. For some of these results: Where a sequence is shown, tags or fusion partners need not be part of it.

Test [1] has as its target T1, F[1,2]::RPN9 (Rpn9 with the N-terminal DHFR fragment) (S. cerevisiae) (UniProt Q04062).
T1 sequence: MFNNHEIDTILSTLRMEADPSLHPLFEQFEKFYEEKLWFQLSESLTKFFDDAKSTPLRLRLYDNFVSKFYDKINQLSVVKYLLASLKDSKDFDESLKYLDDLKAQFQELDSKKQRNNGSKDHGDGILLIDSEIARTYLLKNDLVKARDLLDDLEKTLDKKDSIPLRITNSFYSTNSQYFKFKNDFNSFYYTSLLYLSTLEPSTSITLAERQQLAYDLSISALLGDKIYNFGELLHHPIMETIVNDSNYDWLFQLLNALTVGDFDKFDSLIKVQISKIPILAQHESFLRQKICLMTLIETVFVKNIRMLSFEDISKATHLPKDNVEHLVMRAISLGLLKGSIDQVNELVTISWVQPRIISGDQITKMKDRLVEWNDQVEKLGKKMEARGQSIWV
The experiment in a line: split reporter; protein-fragment complementation assay (PCA) with split methotrexate-resistant DHFR in yeast; fusions at native chromosomal loci; growth with 200 μg ml^−1 methotrexate.

The target of test [2] is T2, His6-Rpn12 (S. cerevisiae), P32496.
T2 chain: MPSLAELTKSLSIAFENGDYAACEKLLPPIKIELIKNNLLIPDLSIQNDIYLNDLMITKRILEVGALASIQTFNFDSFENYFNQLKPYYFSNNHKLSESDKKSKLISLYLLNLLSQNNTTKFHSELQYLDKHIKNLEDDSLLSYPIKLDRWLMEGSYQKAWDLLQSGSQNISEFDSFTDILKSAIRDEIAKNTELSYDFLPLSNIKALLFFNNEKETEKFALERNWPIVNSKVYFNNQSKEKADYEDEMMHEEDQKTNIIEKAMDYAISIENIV
The experiment in a line: pull-down; His6-tagged proteins immobilized on Ni2+ beads pull down purified Rpn10 or Ub-Rpn10 (42 μl of 2.8 mg ml^−1); 25 mM HEPES, 75 mM NaCl, 0.25% Triton X-100, 1 mM DTT, pH 7.4; 3 h at 4 °C; western blot with α-Rpn10; both purified. To be noted: remark: other sources report otherwise. For orientation: In western blotting, separated proteins are transferred to a membrane and probed.

Test [3] deals with T3, His6-Rpn9 (S. cerevisiae) (UniProt Q04062).
T3 sequence: T1 sequence
The description is as above.

B1: [F3]::RPN10 (Rpn10 with the C-terminal DHFR fragment) (protein, UniProt P38886 1-268)
chain: MVLEATVLVIDNSEYSRNGDFPRTRFEAQIDSVEFIFQAKRNSNPENTVGLISGAGANPRVLSTFTAEFGKILAGLHDTQIEGKLHMATALQIAQLTLKHRQNKVQHQRIVAFVCSPISDSRDELIRLAKTLKKNNVAVDIINFGEIEQNTELLDEFIAAVNNPQEETSHLLTVTPGPRLLYENIASSPIILEEGSSGMGAFGGSGGDSDANGTFMDFGVDPSMDPELAMALRLSMEEEQQRQERLRQQQQQQDQPEQSEQPEQHQDK
As to B1, the binding result in test [1] is on record as “binds weakly”.

B2: apo-Rpn10, P38886 1-268 (protein)
chain: B1 chain
For B2, the binding result in test [2] was “no binding (tested: 2.8 mg ml^−1)”.

B3: [F3]::rpn10-K84R (Rpn10-K84R with the C-terminal DHFR fragment) (protein, UniProt P38886 1-268)
chain: B1 chain with K84R
For the molecule B3, the binding entry in test [1] is “binds”.

B4: apo-Rpn10 (protein, UniProt P38886 1-268)
chain: B1 chain
Turning to B4, in test [3], the binding entry is listed as “binds weakly”.
